Test results: PMC8319531, “Cryo-EM reveals conformational flexibility in apo DNA polymerase ζ” (The Journal of Biological Chemistry, 2021)
Results are given in words; binding and its absence hold for the method and conditions named. Some binding calls cover weakened binding; strength is not graded here. Where a sequence is shown, tags or fusion partners need not be part of it.

Target: T1, Saccharomyces cerevisiae Rev7, accessory subunit of Polζ (S. cerevisiae), P38927
T1 chain: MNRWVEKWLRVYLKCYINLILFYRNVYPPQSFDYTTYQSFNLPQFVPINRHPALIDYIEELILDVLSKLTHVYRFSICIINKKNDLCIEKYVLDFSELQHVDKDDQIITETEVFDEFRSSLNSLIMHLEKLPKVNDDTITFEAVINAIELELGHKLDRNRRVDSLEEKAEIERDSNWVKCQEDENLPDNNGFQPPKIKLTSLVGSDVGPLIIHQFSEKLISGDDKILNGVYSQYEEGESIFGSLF
Assay: cryo-EM structure; apo Polζ holoenzyme without DNA, subunits coexpressed in yeast and co-purified; single-particle cryo-EM, 4.11 Å consensus map, focused maps 3.65 Å and 3.72 Å; both purified
Conditions: remark: other sources report otherwise

B1: Saccharomyces cerevisiae Rev7, accessory subunit of Polζ (natural protein, S. cerevisiae, UniProt P38927 1-245, looked up)
chain: MNRWVEKWLRVYLKCYINLILFYRNVYPPQSFDYTTYQSFNLPQFVPINRHPALIDYIEELILDVLSKLTHVYRFSICIINKKNDLCIEKYVLDFSELQHVDKDDQIITETEVFDEFRSSLNSLIMHLEKLPKVNDDTITFEAVINAIELELGHKLDRNRRVDSLEEKAEIERDSNWVKCQEDENLPDNNGFQPPKIKLTSLVGSDVGPLIIHQFSEKLISGDDKILNGVYSQYEEGESIFGSLF
notes: Rev7, S. cerevisiae; codon-optimized gene; Two copies (Rev7A, Rev7B) stand in the Polζ complex; also called Rev7B; yeast Rev7
binding: binds
